Results as given in PubChem BioAssay AID2551 (National Center for Advancing Translational Sciences (NCATS), 2010).
Where “and” joins values, the source holds several entries; their conditions need not be identical. Equal values may be shown once. The whole screen tested about 310,000 compounds, of which about 17,000 (5.5%) were called active. This list was built around the results that the source calls inconclusive (neither active nor inactive); the mix of calls is not that of the screen. Calls come from the whole dose curve; as a rule, active = well fitted inhibition curve with a large enough effect; inconclusive = small, poorly fitted or top-dose-only effect, or effect the other way; inactive = no such curve, though single readings can be large or run the other way. Potencies of inconclusive entries are doubtful fits and often do not repeat. Where a structure was tested more than once in an assay, its records may differ in their call.

Sequences of proteins named here, by UniProt entry; tags and fusion partners are left off. A change or cut given only in a name is not applied to a line headed by its entry.
UniProt P51450: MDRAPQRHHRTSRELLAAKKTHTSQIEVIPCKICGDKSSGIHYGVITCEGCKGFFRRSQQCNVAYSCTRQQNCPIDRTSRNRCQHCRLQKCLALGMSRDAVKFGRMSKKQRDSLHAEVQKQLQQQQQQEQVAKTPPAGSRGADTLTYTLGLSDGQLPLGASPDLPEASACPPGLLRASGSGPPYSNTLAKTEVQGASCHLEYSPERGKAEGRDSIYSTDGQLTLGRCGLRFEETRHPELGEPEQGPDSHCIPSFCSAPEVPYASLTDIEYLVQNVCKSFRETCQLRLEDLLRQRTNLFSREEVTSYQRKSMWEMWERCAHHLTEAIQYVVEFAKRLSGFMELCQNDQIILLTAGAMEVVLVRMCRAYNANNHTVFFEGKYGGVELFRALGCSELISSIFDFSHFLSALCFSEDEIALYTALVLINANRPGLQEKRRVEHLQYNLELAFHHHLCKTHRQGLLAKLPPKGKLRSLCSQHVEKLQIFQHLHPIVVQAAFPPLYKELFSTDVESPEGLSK

target: Nuclear receptor ROR-gamma (Mus musculus) (UniProt P51450); experiment: qHTS for inhibitors of ROR gamma transcriptional activity; settings: Drosophila S2 Gal4-RORgamma UAS-luciferase reporter, 20 h; activity change, negative = inhibition: at 53.6 µM (top of the series); note: nearly all actives have a fitted effect of over 60% in size
How it was run: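 Read-out: Photinus luciferase luminescence; inhibitors lower reporter signal. Insect Schneider cells with Gal4-ROR gamma fusion under metallothionein promoter, UAS reporter; 700 uM final copper sulfate induction, 20 hr, ambient temperature.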
% is set by controls: 0 for no effect and ±100 for the full control effect; potency is the fitted concentration of half-maximal effect.

Row | SMILES | Potency | activity change, negative = inhibition
1 | Cc1cccc(-n2c(O)c(C=Nc3ccccc3N)c(=O)[nH]c2=O)c1 | inconclusive: 5.62 µM [activator, single point] | –
2 | COc1ccc(Cn2c(O)c(/C=N/NC(=O)c3ccccc3)c(=O)[nH]c2=O)cc1 | inconclusive: 14.1 µM [inhibitor, single point] | –
3 | C=CCN1C(=O)NC(=O)/C(=C/C=C/c2ccccc2)C1=O | inconclusive: 28.2 µM [inhibitor, single point] | –
4 | CCC12C=CCN3CCC4(c5cc(Br)c(OC)cc5N(C)C4C(O)(C(=O)OC)C1OC(C)=O)C32 (stereo unspecified) | inconclusive: 12.6 µM [activator, partial curve] | –
5 | O=C(Nc1ccc(Cl)c(C(F)(F)F)c1)NC1CC2CCCC(C1)N2Cc1ccccc1 (stereo unspecified) | inconclusive: 35.5 µM [inhibitor, single point] | –
6 | O=P(Nc1ccccc1)(Nc1ccccc1)Oc1ccc(Cl)cc1 | – | inactive: 24.6%
7 | CC(=O)OC1CC(OC(C)=O)[C@]2(C)C(CC(OC(C)=O)[C@]3(C)C2CC[C@@]2(C)C(c4ccoc4)C[C@H]4O[C@]432)C1(C)C (stereo partly specified) | inconclusive: 12.6 µM [inhibitor, single point] | –
8 | CCCCn1c(=O)c(C(=O)Nc2ccccc2F)c(O)c2ccccc21 | inconclusive: 1.26 µM [activator, single point] | –
9 | Oc1cc(Cl)c(Cl)c(Cl)c1Cl | inconclusive: 35.5 µM [activator, single point] | –
10 | Cc1ncc(CC(=O)n2cc(C(=O)c3cc(Cl)ccc3O)cn2)s1 | active: 7.94 µM | –
11 | O=C(c1ccc(Cl)cc1)C1CCCN(Cc2cccc3cnccc23)C1 (stereo unspecified) | inconclusive: 35.5 µM [inhibitor, single point] | –
12 | CC[C@@]1(O)C(=O)OCc2c1cc1n(c2=O)Cc2cc3ccccc3nc2-1 | active: 0.0562 µM | –
13 | O=C1c2ccccc2C(=O)c2c1ccc1c(=O)n(-c3ccccc3)[nH]c21 | inconclusive: 17.8 µM [inhibitor, partial curve, poor fit] | –
14 | N#CC(C#N)=C(N)c1cccnc1 | – | inactive: -3.41%
15 | CC(=O)Nc1ccccc1C(=O)OCC(=O)c1ccc2c(c1)OCCO2 | inconclusive: 11.2 µM [inhibitor, single point] | –
16 | CC1CN=C(Nc2ccc(F)cc2)S1 (stereo unspecified) | inconclusive: 12.6 µM [inhibitor, single point] | –
17 | COc1ccc2cc1Oc1ccc(cc1)CC1c3cc(c(OC)cc3CCN1C)Oc1c(OC)c(OC)cc3c1C(C2)N(C)CC3 (stereo unspecified) | inconclusive: 35.5 µM [inhibitor, single point] | –
18 | CNC(=O)Oc1cccc(-c2cn3cc(Cl)ccc3n2)c1 | – | inactive: -40%
19 | Cc1cc([N+](=O)[O-])c2ccccc2[n+]1[O-] | inconclusive: 7.94 µM [inhibitor, partial curve, poor fit] | –
20 | C[C@@]12CCC(=O)C[C@@H]1CC[C@@H]1[C@@H]2CC[C@]2(C)C(=O)CC[C@@H]12 | – | inactive: -6.73%
21 | CCOC(=O)C1=C(NC(=S)NC(=O)c2ccccc2)c2ccccc2CC12CCCC2 | active: 3.16 µM | –
22 | CCCC[N+]1(C)[C@@H]2CC(OC(=O)[C@H](CO)c3ccccc3)C[C@H]1[C@@H]1O[C@@H]12 (stereo partly specified) | – | inactive: 3.72%
23 | CO[C@H]1[C@@H](OC)CC(OC2OC(CO)C(O)C(O)C2O)/C(=C\C#N)[C@@H]1O (stereo partly specified) | – | inactive: 12.2%
24 | CC(=O)N1CCN(c2ccc(OC[C@H]3CO[C@](Cn4ccnc4)(c4ccc(Cl)cc4Cl)O3)cc2)CC1 | inconclusive: 7.08 µM [activator, full curve] | –

Row | SMILES | Potency | activity change, negative = inhibition
25 | CO/C1=C\C(C)=C\[C@@H](C)[C@@H](O)[C@@H](C)C/C(C)=C/C=C/[C@H](OC)[C@@H]([C@@H](C)[C@@H](O)[C@H](C)[C@@]2(O)C[C@@H](O)[C@H](C)C(C(C)C)O2)OC1=O (stereo partly specified) | active: 6.31 µM | –
26 | CC1CN=C(Nc2ccc(F)c(Cl)c2)S1 (stereo unspecified) | inconclusive: 10 µM [inhibitor, partial curve, poor fit] | –
27 | C#CCOS(=O)OC1CCCCC1Oc1ccc(C(C)(C)C)cc1 (stereo unspecified) | inconclusive: 14.1 µM [activator, single point] | –
28 | CC(C)C1C(=O)N2CCCC2[C@]2(O)O[C@@](NC(=O)[C@@H]3C=C4c5cccc6[nH]cc(c56)C[C@H]4N(C)C3)(C(C)C)C(=O)N12 (stereo partly specified) | – | inactive: 6.1%
29 | CN1CC[C@@]23CCCCC2C1Cc1ccc(O)cc13 (stereo partly specified) | – | inactive: 0.318%
30 | CCC(C)/C=C(C)/C=C/C1=CC2=C(Cl)C(=O)C(C)(OC(C)=O)C(=O)C2=CO1 (stereo unspecified) | inconclusive: 10 µM [activator, partial curve] | –
31 | Cc1[nH]c2ccccc2c1/C=N/O | inconclusive: 0.158 µM [inhibitor, single point] | –
32 | COC(=O)C1=C(C)NC(C)=C(C(=O)NCCCN2CCC(c3ccccc3)(c3ccccc3)CC2)C1c1ccc([N+](=O)[O-])cc1 (stereo unspecified) | inconclusive: 35.5 µM [inhibitor, single point] | –
33 | Cc1ccc(-c2nc3ccccc3c(=O)n2-c2nccs2)cc1 | active: 5.62 µM | –
34 | O=C(N/N=C/c1c(O)n(Cc2ccco2)c(=O)[nH]c1=O)c1ccccc1O | active: 12.6 µM | –
35 | CN1CCN(c2ccc([N+](=O)[O-])c3no[n+]([O-])c23)CC1 | active: 1.26 µM | –
36 | O=S(=O)(Nc1ccc(-c2nc3ccccc3o2)cc1)c1ccccc1 | inconclusive: 22.4 µM [activator, single point] | –
37 | O=C(N/N=C/c1c(O)n(Cc2ccccc2)c(=O)[nH]c1=O)c1ccccc1O | active: 11.2 µM | –
38 | CC1(C)CN=C(Nc2nc3ccccc3s2)S1 | active: 8.91 µM | –
39 | CCN(CC)S(=O)(=O)c1cc(NC(=O)C(C)N2CC=C(c3ccccc3)CC2)ccc1C (stereo unspecified) | – | inactive: 14.4%
40 | C/C=C1/C[C@@H](C)[C@@](C)(O)C(=O)OCC2=CCN3CC[C@@H](OC1=O)[C@@H]23 | – | inactive: -23.5%
41 | COc1ccccc1-n1c(Cc2ccccc2)nc2ccccc2c1=O | inconclusive: 2.24 µM [activator, full curve, poor fit] | –
42 | Cc1ccc(S(=O)(=O)CC(=O)c2cc(C)c(OC(=O)N(C)C)c(C)c2)cc1 | – | inactive: 21.5%
43 | NC(=O)CF | – | inactive: -3.7%
44 | CCCOP(=O)(OCCC)c1nc(-c2ccccc2)oc1NCc1ccccc1 | inconclusive: 35.5 µM [activator, single point] | –
45 | CSc1ncc(/C=C2/C(=O)NC(=O)N(c3ccc(C)cc3)C2=O)cn1 | inconclusive: 14.1 µM [activator, single point] | –
46 | O=NN(c1ccccc1)c1ccccc1 | – | inactive: 3.49%
47 | N#CC1(c2ccccc2)CCN(C2CC(=O)N(c3ccc4c(c3)OCO4)C2=O)CC1 (stereo unspecified) | inconclusive: 1.41 µM [activator, partial curve] | –
48 | Cc1cc(C)nc(N/N=C/C2=C(O)CC(c3ccccc3)CC2=O)n1 (stereo unspecified) | inconclusive: 7.08 µM [inhibitor, full curve, poor fit] | –

Compounds above that have an aryl methoxy group (four):
Row | SMILES | Potency | activity change, negative = inhibition
2 | COc1ccc(Cn2c(O)c(/C=N/NC(=O)c3ccccc3)c(=O)[nH]c2=O)cc1 | inconclusive: 14.1 µM [inhibitor, single point] | –
4 | CCC12C=CCN3CCC4(c5cc(Br)c(OC)cc5N(C)C4C(O)(C(=O)OC)C1OC(C)=O)C32 (stereo unspecified) | inconclusive: 12.6 µM [activator, partial curve] | –
17 | COc1ccc2cc1Oc1ccc(cc1)CC1c3cc(c(OC)cc3CCN1C)Oc1c(OC)c(OC)cc3c1C(C2)N(C)CC3 (stereo unspecified) | inconclusive: 35.5 µM [inhibitor, single point] | –
41 | COc1ccccc1-n1c(Cc2ccccc2)nc2ccccc2c1=O | inconclusive: 2.24 µM [activator, full curve, poor fit] | –

The list goes on:

Row | SMILES | Potency | activity change, negative = inhibition
49 | C=C(C)c1cc2cc(C(C)=O)c(O)cc2o1 | inactive and inconclusive: 447 nM [activator, full curve, poor fit] | –
50 | Cc1cc(OCc2nn[nH]n2)c2c3c(c(=O)oc2c1)CCC3 | – | inactive: 2.02%
51 | CC(C)OC(=O)Nc1cccc(Cl)c1 | inconclusive: 11.2 µM [activator, single point] | –
52 | CC1(O)C[C@]2(C)N(O)C3CCCC[C@@H]3N2O1 (stereo partly specified) | – | inactive: 27.1%
53 | CN(C)C(=O)Oc1ccc(OC(=O)N(C)C)cc1 | – | inactive: 28.4%
54 | CC(C)C(=O)c1cn(Cc2ccccc2C#N)c2ccccc12 | – | inactive: 1.48%
55 | CCCC12CN3CCN(CC(C3)/C1=N\NC(=O)c1ccncc1)C2 | – | inactive: -12%
56 | O=C(NC1CC2CCCC(C1)N2)c1ccccc1 (stereo unspecified) | inconclusive: 25.1 µM [inhibitor, partial curve, poor fit] | –
57 | O=c1c2ccccc2ncn1-c1ccc([N+](=O)[O-])c(C(F)(F)F)c1 | inconclusive: 15.8 µM [activator, single point] | –
58 | Cc1c(C(=O)c2cccc3ccccc23)c2cccc3c2n1[C@H](CN1CCOCC1)CO3 | inconclusive: 20 µM [activator, single point] | –
59 | Cc1cccc(Cn2cc(C=O)c3ccccc32)c1 | inconclusive: 12.6 µM [activator, partial curve, poor fit] | –
60 | C[N+]1([O-])[C@@H]2CC(OC(=O)[C@@H](CO)c3ccccc3)C[C@@H]1[C@H]1O[C@H]12 (stereo partly specified) | – | inactive: 0.412% [at 2.98 µM] and inactive: 4.14% [at 10 µM]
61 | O=C(NCc1ccccc1)c1cccn(Cc2ccccc2)c1=O | inconclusive: 35.5 µM [activator, single point] | –
62 | COP(=S)(OC)Oc1ccc([N+](=O)[O-])cc1 | active: 11.2 µM | –
63 | N#CC1(c2ccccc2)CCN(C2CC(=O)N(c3cccc(F)c3)C2=O)CC1 (stereo unspecified) | inconclusive: 35.5 µM [activator, single point] | –
64 | CC(O)CNc1ccc([N+](=O)[O-])c2cccnc12 (stereo unspecified) | – | inactive: -9.58%
65 | O=[N+]([O-])c1ccc2c3c(cccc13)CC2 | – | inactive: 3.49%
66 | CC(C)(C)c1ccc(O)c(N=Cc2c(O)ccc3ccccc23)c1 | active: 12.6 µM | –
67 | Cc1ccc(C(C)C)c(OCCn2c(=O)oc3ccccc32)c1 | active: 10 µM | –
68 | N#CC(O)c1ccccc1 (stereo unspecified) | – | inactive: 17.5%
69 | O=C(N/N=C/c1c(O)n(Cc2ccc(F)cc2)c(=O)[nH]c1=O)c1ccccc1O | inconclusive: 25.1 µM [inhibitor, single point] | –
70 | CC(CCc1ccccc1)NC(C)C(O)c1ccc(O)cc1 (stereo unspecified) | inactive | –
71 | Cc1cccc(C)c1Oc1nc(-c2ccccc2)ncc1S(=O)(=O)c1ccccc1 | inconclusive: 11.2 µM [activator, partial curve] | –
